Source: article PMC8612745

By UniProt entry, the sequences of proteins in these tests, tags left out. Where a name states a change or a piece, a line headed by the entry shows the natural chain unless it says otherwise.
UniProt O15264: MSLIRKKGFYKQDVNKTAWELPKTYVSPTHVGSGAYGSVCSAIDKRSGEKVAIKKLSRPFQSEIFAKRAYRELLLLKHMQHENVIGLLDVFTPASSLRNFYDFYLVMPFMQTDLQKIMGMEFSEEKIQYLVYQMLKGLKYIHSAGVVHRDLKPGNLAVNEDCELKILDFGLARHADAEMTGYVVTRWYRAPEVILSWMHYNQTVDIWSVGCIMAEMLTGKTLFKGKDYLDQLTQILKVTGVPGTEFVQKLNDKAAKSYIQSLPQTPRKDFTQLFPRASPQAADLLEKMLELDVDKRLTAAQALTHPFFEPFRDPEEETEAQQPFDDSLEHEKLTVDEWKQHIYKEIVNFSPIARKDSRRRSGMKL

Biological target: FLAG-p38δ^act (constitutively active human p38δ, AAV-cTnT expressed) (human) (UniProt O15264)
Assay: co-IP; anti-FLAG immunoprecipitates (FLAG-p38γ/δ^act) from heart lysates of TnTp38γ/δ^act mice; immunoblot for GYS1 and GSK3; TnTGFP hearts as control

B1: glycogen synthase 1 (GYS1), cardiac, endogenous (enzyme, UniProt Q9Z1E4 1-738)
chain: MPLSRSLSVSSLPGLEDWEDEFDPENAVLFEVAWEVANKVGGIYTVLQTKAKVTGDEWGDNYYLVGPYTEQGVRTQVELLEPPTPELKRTLDSMNSKGCKVYFGRWLIEGGPLVVLLDVGASAWALERWKGELWDTCNIGVPWYDREANDAVLFGFLTTWFLGEFLAQNEEKPYVVAHFHEWLAGVGLCLCRARRLPVATIFTTHATLLGRYLCAGAVDFYNNLENFNVDKEAGERQIYHRYCMERAAAHCAHVFTTVSQITAIEAQHLLKRKPDIVTPNGLNVKKFSAMHEFQNLHAQSKARIQEFVRGHFYGHLDFNLDKTLYFFIAGRYEFSNKGADVFLEALARLNYLLRVNGSEQTVVAFFIMPARTNNFNVETLKGQAVRKQLWDTANTVKEKFGRKLYESLLVGSLPDMNKMLDKEDFTMMKRAIFATQRQSFPPVCTHNMLDDSSDPILTTIRRIGLFNSSADRVKVIFHPEFLSSTSPLLPVDYEEFVRGCHLGVFPSYYEPWGYTPAECTVMGIPSISTNLSGFGCFMEEHIADPSAYGIYILDRRFRSLDDSCSQLTSFLYSFCQQSRRQRIIQRNRTERLSDLLDWKYLGRYYMSARHMALAKAFPDHFTYEPHEVDATQGYRYPRPASVPPSPSLSRHSSPHQSEDEEEPRDGPLGEDSERYDEEEEAAKDRRNIRAPEWPRRASCSSSTGGSKRSNSVDTGPSSSLSTPTEPLSPTSSLGEERN
binding: binds

No constants are given. Whether binding was seen depends on the method and setting. In cells and extracts the contact can be indirect. A result given as binding can be weak or reduced; the word gives no strength.
